Measured values published in patent US20140370521A1, “IDENTIFICATION OF TWO NOVEL BIOMARKERS FOR NIEMANN-PICK DISEASE TYPE C” (The USA , as Represented by the Secretary, Department of …, priority 2011, published 2014).
The expression values are mRNA levels of the gene; the protein chain is shown to identify it.

B1: Trem2 (protein, UniProt Q99NH8 19-227, looked up)
Triggering receptor expressed …: LNTTVLQGMAGQSLRVSCTYDALKHWGRRKAWCRQLGEEGPCQRVVSTHGVWLLAFLKKRNGSTVIADDTLAGTVTITLKNLQAGDAGLYQCQSLRGREAEVLQKVLVEVLEDPLDDQDAGDLWVPEESSSFEGAQVEHSTSRNQETSFPPTSILLLLACVLLSKFLAASILWAVARGRQKPGTPVVRGLDCGQDAGHQLQILTGPGGT
B2: Timp2 (protein, UniProt P25785 27-220, looked up)
Metalloproteinase inhibitor 2: CSCSPVHPQQAFCNADVVIRAKAVSEKEVDSGNDIYGNPIKRIQYEIKQIKMFKGPDKDIEFIYTAPSSAVCGVSLDVGGKKEYLIAGKAEGDGKMHITLCDFIVPWDTLSITQKKSLNHRYQMGCECKITRCPMIPCYISSPDECLWMDWVTEKSINGHQAKFFACIKRSDGSCAWYRGAAPPKQEFLDIEDP
B3: Ly86 (protein, UniProt O88188 20-162, looked up)
Lymphocyte antigen 86: DHGSENGWPKHTACNSGGLEVVYQSCDPLQDFGLSIDQCSKQIQSNLNIRFGIILRQDIRKLFLDITLMAKGSSILNYSYPLCEEDQPKFSFCGRRKGEQIYYAGPVNNPGLDVPQGEYQLLLELYNENRATVACANATVTSS
B4: Timp3 (protein, UniProt P39876 24-211, looked up)
Metalloproteinase inhibitor 3: CTCSPSHPQDAFCNSDIVIRAKVVGKKLVKEGPFGTLVYTIKQMKMYRGFSKMPHVQYIHTEASESLCGLKLEVNKYQYLLTGRVYEGKMYTGLCNFVERWDHLTLSQRKGLNYRYHLGCNCKIKSCYYLPCFVTSKNECLWTDMLSNFGYPGYQSKHYACIRQKGGYCSWYRGWAPPDKSISNATDP
B5: Vegfb (protein, UniProt P49766 22-207, looked up)
Vascular endothelial growth …: PVSQFDGPSHQKKVVPWIDVYARATCQPREVVVPLSMELMGNVVKQLVPSCVTVQRCGGCCPDDGLECVPTGQHQVRMQILMIQYPSSQLGEMSLEEHSQCECRPKKKESAVKPDRVAIPHHRPQPRSVPGWDSTPGASSPADIIHPTPAPGSSARLAPSAVNALTPGPAAAAADAAASSIAKGGA
B6: C1qa (protein, UniProt P98086 23-245, looked up)
Complement C1q subcomponent …: EDVCRAPNGKDGAPGNPGRPGRPGLKGERGEPGAAGIRTGIRGFKGDPGESGPPGKPGNVGLPGPSGPLGDSGPQGLKGVKGNPGNIRDQPRPAFSAIRQNPMTLGNVVIFDKVLTNQESPYQNHTGRFICAVPGFYYFNFQVISKWDLCLFIKSSSGGQPRDSLSFSNTNNKGLFQVLAGGTVLQLRRGDEVWIEKDPAKGRIYQGTEADSIFSGFLIFPSA
B7: Pla2g7 (protein, UniProt Q60963 22-440, looked up)
Platelet-activating factor …: FHWQDTSSFDFRPSVMFHKLQSVMSAAGSGHSKIPKGNGSYPVGCTDLMFGYGNESVFVRLYYPAQDQGRLDTVWIPNKEYFLGLSIFLGTPSIVGNILHLLYGSLTTPASWNSPLRTGEKYPLIVFSHGLGAFRTIYSAIGIGLASNGFIVATVEHRDRSASATYFFEDQVAAKVENRSWLYLRKVKQEESESVRKEQVQQRAIECSRALSAILDIEHGDPKENVLGSAFDMKQLKDAIDETKIALMGHSFGGATVLQALSEDQRFRCGVALDPWMYPVNEELYSRTLQPLLFINSAKFQTPKDIAKMKKFYQPDKERKMITIKGSVHQNFDDFTFVTGKIIGNKLTLKGEIDSRVAIDLTNKASMAFLQKHLGLQKDFDQWDPLVEGDDENLIPGSPFDAVTQVPAQQHSPGSQTQN
B8: Pdgfb (protein, UniProt P31240 82-190, looked up)
Platelet-derived growth …: SLGSLAAAEPAVIAECKTRTEVFQISRNLIDRTNANFLVWPPCVEVQRCSGCCNNRNVQCRASQVQMRPVQVRKIEIVRKKPIFKKATVTLEDHLACKCETIVTPRPVT
B9: Serpina9 (protein, UniProt Q9D7D2 26-418, looked up)
Serpin A9: NPYNQESSHLPSMKKNPASQVSPSNTRFSFLLYQRLAQENPGQNILFSPVSISTSLAMLSLGARSATKTQILRTLGFNFTWVSEPTIHMGFEYLVRSLNKCHQGRELRMGSVLFIRKELQLQATFLDRVKKLYGAKVFSEDFSNAATAQAQINSYVEKETKGKVVDVIQDLDSQTAMVLVNHIFFKANWTQPFSTANTNKSFPFLLSKGTTVHVPMMHQTESFAFGVDKELGCSILQMDYRGDAVAFFVLPGKGKMRQLEKSLSARRLRKWSRSLQKRWIKVFIPKFSISASYNLETILPKMGIRDAFNSNADFSGITKTHFLQVSKAAHKAVLDVSEEGTEAAAATTTKLIVRSRDTPSSIIAFKEPFLILLLDKNTESVLFLGKVENPRKM
B10: Alcam (protein, UniProt Q61490 28-583, looked up)
CD166 antigen: WYTVNSAYGDTIVMPCRLDVPQNLMFGKWKYEKPDGSPVFIAFRSSTKKSVQYDDVPEYKDRLSLSENYTLSIANAKISDEKRFVCMLVTEDNVFEAPTLVKVFKQPSKPEIVNKAPFLETDQLKKLGDCISRDSYPDGNITWYRNGKVLQPVEGEVAILFKKEIDPGTQLYTVTSSLEYKTTRSDIQMPFTCSVTYYGPSGQKTIYSEQEIFDIYYPTEQVTIQVLPPKNAIKEGDNITLQCLGNGNPPPEEFMFYLPGQPEGIRSSNTYTLTDVRRNATGDYKCSLIDKRNMAASTTITVHYLDLSLNPSGEVTKQIGDTLPVSCTISASRNATVVWMKDNIRLRSSPSFSSLHYQDAGNYVCETALQEVEGLKKRESLTLIVEGKPQIKMTKKTDPSGLSKTIICHVEGFPKPAIHWTITGSGSVINQTEESPYINGRYYSKIIISPEENVTLTCTAENQLERTVNSLNVSAISIPEHDEADDISDENREKVNDQAKLIVGIVVGLLLAALVAGVVYWLYMKKSKTASKHVNKDLGNMEENKKLEENNHKTEA
B11: Smoc2 (protein, UniProt Q8CD91 22-447, looked up)
SPARC-related modular …: QKFSALTFLRVDQDKDRDCSLDCPSSPQKPLCASDGRTFLSRCEFQRAKCKDPQLEIAHRGNCKDVSRCVAERKYTQEQARKEFQQVFIPECNDDGTYSQVQCHSYTGYCWCVTPNGRPISGTAVAHKTPRCPGSINEKVPQREGAGKADDAAAPALETQPQGDEEDIASRYPTLWTEQVKSRQNKTNKNSASSCDQEHQSALEEAKQPKNDNVVIPECAHGGLYKPVQCHPSTGYCWCVLVDTGRPIPGTSTRYEQPKCDNTARAHPAKARDLYKNRPLQGCPGAKKHEFLTSVLDALSTDMVHAVSDPSSSSGRLSEPDPSHTLEERVVHWYFKLLDKNSSGDIGKKEIKPFKRFLRKKSKPKKCVKKFVEYCDMNNDKSITVQELMGCLGVTREEGKANTRKRHTPRGNAESSSSNRQPRKQG
B12: A1bg (protein, UniProt Q19LI2 19-512, looked up)
Alpha-1B-glycoprotein: NTLMLDSGSEPKLWAEPQSLLEPWANLTLVCAVDLPTKVFELIQNGWFLSQVRLETQVLSYRFSLGAITSNNSGIYRCRCGVEPPVDIHLPALNKWTMLSNAVEVTGKEPLPRPLAHADPVDWITPGGLPVYVMCQVAMRGVTYLLRQEGVDGVQKPDVQHKGTAGFLIYKPGNYSCSYLTHAAGEPSEPSDIVTIKMYASQAPPTLCLMGNYLMIYPQKTYETLACKAPRNAAEFQLRQGGKVLKIHGFSPTRDAILYYVNLKELDNPGPFTCRYRMHKYMHVWSEDSKPVELMWSDETLQAPVLTAEPSSRDLEPGSTVQLRCTAPVSGLRFGLQRQGKPELVVVQMLNSSGTEAVFELHNISTIDSGNYSCIYMEQAPPFSGSSSSEPVELRVNGPPPKPRLEALWKSTVHLGQEAIFRCHGHVPRVSMELVREGFKTPFAVASTRSTSAYLKLLFVGPQHAGNYSCRYTALPPFTFESGISDPVEVIVEG

Tested on: Npc1-/- mouse liver
Assay: Liver gene expression microarray, Npc1-/- versus control mice (Affymetrix Mouse GeneChip 1.0 ST)
Details: negative = lower in Npc1−/−
[1] = head prints "weeks" (column between 7 weeks and 11 weeks)

| Molecule | FC (fold-change of expression between Npc1−/− and control mice) (3 weeks of age) | FC (fold-change of expression between Npc1−/− and control mice) (5 weeks of age) | FC (fold-change of expression between Npc1−/− and control mice) (7 weeks of age) | FC (fold-change of expression between Npc1−/− and control mice) (11 weeks of age) | FC (fold-change of expression between Npc1−/− and control mice) [1] | FC (fold-change of expression between Npc1−/− and control mice) (1 week of age) |
| --- | --- | --- | --- | --- | --- | --- |
| B1 | 1.54 | 1.82 | 2.91 | 3.72 | 3.77 | – |
| B2 | 1.41 | 1.52 | 2.80 | 3.85 | 2.64 | – |
| B3 | 1.36 | 1.84 | 2.21 | 5.03 | 3.51 | – |
| B4 | 1.48 | 1.47 | 1.91 | 2.49 | 1.67 | – |
| B5 | 1.56 | 1.46 | 1.34 | 1.30 | – | 1.38 |
| B6 | – | 1.40 | 1.40 | 1.87 | 1.59 | – |
| B7 | 1.34 | 1.91 | 2.60 | 5.07 | 3.90 | – |
| B8 | 1.31 | 1.35 | 1.66 | 1.85 | 1.70 | – |
| B9 | −1.70 | −1.50 | – | −1.41 | −1.50 | −1.49 |
| B10 | – | 1.53 | 1.67 | 1.59 | 1.70 | – |
| B11 | 1.32 | 1.34 | 1.40 | 1.65 | 1.49 | – |
| B12 | – | −2.75 | −3.97 | −5.43 | −4.13 | – |
